Measured values: the supplement of paper PMC10849652
The other results are listed elsewhere or left out.

The chains behind the UniProt entries cited, without tags or fusion partners. Where a name states a change or a piece, a line headed by the entry shows the natural chain unless it says otherwise.
UniProt O14519: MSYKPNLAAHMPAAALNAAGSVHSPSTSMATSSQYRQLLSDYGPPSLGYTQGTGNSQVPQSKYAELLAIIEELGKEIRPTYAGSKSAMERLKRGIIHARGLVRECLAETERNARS
UniProt O00311: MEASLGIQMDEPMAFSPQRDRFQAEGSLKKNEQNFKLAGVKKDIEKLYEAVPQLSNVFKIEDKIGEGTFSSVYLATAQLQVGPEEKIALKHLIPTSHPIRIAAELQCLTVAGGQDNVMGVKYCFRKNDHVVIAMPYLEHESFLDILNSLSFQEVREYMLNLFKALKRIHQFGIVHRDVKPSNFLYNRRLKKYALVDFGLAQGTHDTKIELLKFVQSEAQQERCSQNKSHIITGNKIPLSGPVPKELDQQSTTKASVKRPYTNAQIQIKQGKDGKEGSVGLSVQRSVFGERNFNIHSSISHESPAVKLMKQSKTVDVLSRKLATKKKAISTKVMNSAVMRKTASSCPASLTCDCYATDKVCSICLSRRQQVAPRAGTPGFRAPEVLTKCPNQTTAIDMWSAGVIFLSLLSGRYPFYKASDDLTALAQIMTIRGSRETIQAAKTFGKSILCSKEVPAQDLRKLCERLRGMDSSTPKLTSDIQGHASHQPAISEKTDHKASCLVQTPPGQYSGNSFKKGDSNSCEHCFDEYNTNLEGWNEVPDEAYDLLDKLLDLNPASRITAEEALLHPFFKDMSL
UniProt Q96JB5: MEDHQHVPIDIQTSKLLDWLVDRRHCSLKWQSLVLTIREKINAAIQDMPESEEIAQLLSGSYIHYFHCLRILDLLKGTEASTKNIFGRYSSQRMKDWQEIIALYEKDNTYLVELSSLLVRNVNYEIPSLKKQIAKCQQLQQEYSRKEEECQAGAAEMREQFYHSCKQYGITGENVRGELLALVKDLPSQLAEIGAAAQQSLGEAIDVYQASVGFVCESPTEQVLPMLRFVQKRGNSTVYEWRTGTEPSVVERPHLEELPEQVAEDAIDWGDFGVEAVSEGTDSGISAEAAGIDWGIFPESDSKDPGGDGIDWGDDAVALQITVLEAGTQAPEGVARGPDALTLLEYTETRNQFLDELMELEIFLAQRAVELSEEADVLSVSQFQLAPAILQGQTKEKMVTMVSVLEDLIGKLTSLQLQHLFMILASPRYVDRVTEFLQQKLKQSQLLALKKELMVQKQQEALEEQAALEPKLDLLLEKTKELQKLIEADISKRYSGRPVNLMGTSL
UniProt P49336: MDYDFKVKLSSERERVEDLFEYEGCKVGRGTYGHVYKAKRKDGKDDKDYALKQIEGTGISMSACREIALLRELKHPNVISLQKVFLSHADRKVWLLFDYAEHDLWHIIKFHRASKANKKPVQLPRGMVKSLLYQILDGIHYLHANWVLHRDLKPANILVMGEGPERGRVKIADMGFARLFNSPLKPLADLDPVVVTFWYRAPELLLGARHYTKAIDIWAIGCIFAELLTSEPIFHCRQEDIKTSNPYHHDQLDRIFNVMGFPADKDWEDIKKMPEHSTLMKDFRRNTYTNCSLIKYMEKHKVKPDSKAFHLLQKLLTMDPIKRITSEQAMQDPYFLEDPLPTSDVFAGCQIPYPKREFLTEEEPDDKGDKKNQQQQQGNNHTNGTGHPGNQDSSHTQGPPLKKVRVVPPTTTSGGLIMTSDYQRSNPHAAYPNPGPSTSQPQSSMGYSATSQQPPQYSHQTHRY
UniProt P49918: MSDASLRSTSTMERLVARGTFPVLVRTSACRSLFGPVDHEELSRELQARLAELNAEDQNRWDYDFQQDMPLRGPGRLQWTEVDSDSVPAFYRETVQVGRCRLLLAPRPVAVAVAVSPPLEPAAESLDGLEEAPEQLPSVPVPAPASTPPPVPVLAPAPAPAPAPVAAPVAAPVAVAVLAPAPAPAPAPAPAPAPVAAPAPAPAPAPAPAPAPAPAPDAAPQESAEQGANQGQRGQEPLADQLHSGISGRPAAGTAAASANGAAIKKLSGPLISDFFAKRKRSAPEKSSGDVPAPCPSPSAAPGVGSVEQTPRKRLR
UniProt Q9NXV6: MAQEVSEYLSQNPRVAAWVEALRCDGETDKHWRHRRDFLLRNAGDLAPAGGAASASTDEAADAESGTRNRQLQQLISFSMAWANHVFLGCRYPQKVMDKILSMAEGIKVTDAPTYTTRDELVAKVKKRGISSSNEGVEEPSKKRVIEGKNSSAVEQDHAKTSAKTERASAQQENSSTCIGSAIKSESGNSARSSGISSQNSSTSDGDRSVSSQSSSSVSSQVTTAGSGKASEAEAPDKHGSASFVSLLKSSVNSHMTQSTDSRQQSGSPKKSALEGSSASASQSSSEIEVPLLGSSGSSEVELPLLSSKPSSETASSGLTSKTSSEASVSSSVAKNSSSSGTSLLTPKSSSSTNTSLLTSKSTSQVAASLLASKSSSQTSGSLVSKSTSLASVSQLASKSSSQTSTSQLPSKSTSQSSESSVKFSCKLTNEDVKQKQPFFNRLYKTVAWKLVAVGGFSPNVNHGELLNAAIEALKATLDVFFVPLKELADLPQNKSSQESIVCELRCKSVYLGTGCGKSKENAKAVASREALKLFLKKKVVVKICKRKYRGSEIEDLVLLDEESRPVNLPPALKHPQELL
UniProt P14209: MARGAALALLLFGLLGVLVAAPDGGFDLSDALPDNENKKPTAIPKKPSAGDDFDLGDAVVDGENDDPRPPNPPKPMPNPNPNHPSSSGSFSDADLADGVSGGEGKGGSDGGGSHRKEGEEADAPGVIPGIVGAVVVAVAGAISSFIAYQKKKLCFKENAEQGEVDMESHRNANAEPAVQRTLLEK
UniProt Q5VV42: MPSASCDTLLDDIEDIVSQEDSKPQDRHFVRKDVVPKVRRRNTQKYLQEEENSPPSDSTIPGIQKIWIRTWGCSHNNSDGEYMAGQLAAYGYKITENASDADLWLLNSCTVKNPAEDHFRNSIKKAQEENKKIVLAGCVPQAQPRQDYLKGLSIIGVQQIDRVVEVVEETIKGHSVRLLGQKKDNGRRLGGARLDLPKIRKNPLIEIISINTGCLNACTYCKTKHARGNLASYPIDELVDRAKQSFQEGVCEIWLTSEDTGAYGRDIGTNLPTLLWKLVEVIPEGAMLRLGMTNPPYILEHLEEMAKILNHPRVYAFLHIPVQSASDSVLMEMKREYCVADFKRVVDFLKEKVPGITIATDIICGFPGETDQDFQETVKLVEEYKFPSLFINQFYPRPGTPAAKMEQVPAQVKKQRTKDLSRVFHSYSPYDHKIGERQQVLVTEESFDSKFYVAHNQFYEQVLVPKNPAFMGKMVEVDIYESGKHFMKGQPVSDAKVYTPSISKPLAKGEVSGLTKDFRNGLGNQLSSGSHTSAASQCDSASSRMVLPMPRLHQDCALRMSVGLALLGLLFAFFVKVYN
UniProt Q8NHZ8, whole entry, looked up: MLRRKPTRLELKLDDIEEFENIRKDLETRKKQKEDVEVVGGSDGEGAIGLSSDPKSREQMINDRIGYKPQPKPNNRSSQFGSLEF
UniProt O75794: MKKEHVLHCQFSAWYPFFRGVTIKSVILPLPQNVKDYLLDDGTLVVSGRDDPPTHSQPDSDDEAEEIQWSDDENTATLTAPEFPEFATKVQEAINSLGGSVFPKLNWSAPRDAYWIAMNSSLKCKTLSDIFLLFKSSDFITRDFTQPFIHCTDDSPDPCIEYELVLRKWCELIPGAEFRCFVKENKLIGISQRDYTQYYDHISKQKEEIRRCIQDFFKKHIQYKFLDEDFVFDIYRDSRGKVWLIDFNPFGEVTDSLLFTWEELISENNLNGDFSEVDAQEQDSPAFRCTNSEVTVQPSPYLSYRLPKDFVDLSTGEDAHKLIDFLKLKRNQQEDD
UniProt Q53EZ4: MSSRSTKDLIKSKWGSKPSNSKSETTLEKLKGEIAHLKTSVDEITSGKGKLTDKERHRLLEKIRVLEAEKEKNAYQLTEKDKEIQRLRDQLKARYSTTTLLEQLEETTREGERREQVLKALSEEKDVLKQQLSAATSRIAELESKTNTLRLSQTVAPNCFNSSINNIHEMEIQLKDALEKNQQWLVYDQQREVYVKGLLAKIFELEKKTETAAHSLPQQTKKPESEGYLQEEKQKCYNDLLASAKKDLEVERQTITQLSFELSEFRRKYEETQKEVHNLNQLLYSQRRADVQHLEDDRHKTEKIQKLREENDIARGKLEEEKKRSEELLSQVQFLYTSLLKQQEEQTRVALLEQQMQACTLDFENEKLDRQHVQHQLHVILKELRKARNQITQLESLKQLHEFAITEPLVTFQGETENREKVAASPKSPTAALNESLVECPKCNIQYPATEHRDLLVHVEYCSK
UniProt Q8TCZ2: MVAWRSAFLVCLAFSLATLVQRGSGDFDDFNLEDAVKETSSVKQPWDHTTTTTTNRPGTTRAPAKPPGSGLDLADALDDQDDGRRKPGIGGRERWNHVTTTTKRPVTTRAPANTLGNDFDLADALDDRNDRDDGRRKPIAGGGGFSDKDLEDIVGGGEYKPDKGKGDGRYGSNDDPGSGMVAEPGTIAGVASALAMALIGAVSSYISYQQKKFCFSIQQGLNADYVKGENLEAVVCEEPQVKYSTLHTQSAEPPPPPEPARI
UniProt O75956: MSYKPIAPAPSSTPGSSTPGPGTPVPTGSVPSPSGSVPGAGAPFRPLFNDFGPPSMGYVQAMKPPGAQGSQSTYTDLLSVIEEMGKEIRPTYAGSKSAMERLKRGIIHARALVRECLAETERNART
UniProt Q7L2Z9: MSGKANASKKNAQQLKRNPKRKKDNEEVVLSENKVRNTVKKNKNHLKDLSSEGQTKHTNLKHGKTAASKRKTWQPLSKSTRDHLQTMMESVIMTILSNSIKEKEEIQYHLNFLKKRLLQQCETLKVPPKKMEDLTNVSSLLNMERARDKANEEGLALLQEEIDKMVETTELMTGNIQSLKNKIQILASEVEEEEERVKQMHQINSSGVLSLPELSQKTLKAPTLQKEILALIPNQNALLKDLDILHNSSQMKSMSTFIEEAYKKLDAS
UniProt P08603, whole entry, looked up: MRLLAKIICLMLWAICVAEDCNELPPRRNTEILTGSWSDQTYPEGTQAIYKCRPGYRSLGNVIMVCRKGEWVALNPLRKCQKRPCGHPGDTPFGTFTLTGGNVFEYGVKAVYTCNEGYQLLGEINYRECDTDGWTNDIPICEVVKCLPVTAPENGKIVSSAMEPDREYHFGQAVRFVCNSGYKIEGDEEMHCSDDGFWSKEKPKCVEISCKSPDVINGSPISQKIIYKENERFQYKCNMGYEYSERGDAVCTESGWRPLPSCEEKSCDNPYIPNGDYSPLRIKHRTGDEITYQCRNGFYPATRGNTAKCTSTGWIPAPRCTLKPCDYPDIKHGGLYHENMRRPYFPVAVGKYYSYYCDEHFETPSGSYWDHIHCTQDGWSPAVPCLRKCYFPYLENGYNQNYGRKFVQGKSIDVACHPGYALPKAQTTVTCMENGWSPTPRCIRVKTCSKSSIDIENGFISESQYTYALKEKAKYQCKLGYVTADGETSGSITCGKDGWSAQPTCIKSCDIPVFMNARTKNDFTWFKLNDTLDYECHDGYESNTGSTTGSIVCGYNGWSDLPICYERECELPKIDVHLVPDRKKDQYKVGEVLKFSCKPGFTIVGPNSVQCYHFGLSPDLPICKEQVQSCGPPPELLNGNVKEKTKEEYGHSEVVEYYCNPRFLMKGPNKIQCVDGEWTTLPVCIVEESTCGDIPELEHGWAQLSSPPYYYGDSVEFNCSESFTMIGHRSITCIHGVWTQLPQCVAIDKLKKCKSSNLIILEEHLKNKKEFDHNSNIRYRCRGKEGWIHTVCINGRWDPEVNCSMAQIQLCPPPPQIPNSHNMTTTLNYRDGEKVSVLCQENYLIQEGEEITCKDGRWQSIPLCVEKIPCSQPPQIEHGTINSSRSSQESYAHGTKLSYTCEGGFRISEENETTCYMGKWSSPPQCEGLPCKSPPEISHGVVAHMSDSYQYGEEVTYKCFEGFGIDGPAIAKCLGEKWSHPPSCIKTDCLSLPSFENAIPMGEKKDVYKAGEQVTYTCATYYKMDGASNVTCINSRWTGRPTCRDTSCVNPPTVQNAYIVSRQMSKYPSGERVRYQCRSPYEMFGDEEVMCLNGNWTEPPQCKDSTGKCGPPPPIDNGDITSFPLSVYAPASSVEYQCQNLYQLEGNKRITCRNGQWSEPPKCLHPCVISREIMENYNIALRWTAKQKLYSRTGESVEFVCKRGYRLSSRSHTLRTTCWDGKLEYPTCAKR
UniProt P11802: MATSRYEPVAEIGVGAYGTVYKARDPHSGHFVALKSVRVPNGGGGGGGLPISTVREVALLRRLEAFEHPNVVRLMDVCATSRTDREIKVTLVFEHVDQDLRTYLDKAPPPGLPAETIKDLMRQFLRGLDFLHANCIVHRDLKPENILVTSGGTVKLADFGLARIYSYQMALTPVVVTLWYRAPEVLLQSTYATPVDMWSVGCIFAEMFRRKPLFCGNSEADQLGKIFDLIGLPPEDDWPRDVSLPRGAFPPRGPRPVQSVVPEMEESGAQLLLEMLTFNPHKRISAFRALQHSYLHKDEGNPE

Assays:
Test in all cases: log2 fold change, soluble protein after heating vs DMSO (PISA); higher = thermal stabilisation; K562 lysate, 10 uM; active = over 0.2 and 3.5 SD of the protein, either way, in both replicates (recomputed)
nilotinib = compound: Cc1cn(-c2cc(NC(=O)c3ccc(C)c(Nc4nccc(-c5cccnc5)n4)c3)cc(C(F)(F)F)c2)cn1 [nilotinib]
How it was run: (§1)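 Log-two fold change in thermal stability relative to solvent controls is reported from duplicates. For each sample, crude K562 extract from dounce-homogenised pellets in PBS pH 7.4 with 1 mM MgCl2, at 1 mg/mL protein, was treated with 10 μM compound for 30 min. Aliquots heated for 3 min across 48°C-58°C were pooled, brought to 0.5% NP-40 at 4°C and cleared at 21,000xg for 90 min. The supernatant was quantified by TMTpro 16plex LC-MS/MS with channel sums equalised.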

[1] = compound: Cc1nc(Nc2n[nH]c3c2CN(C(=O)N[C@H](CN(C)C)c2ccccc2)C3(C)C)c2sccc2n1
How it was run: as §1

dasatinib = compound: Cc1nc(Nc2ncc(C(=O)Nc3c(C)cccc3Cl)s2)cc(N2CCN(CCO)CC2)n1 [dasatinib]
How it was run: as §1

[2] = compound: Cc1ncc(-c2ccnc(Nc3ccc(S(C)(=O)=O)cc3)n2)n1C(C)C
How it was run: as §1

[3] = compound: Cn1cc(-c2ccc3c(c2)CCN3C(=O)Cc2cccc(C(F)(F)F)c2)c2c(N)ncnc21
How it was run: as §1

quisinostat = compound: Cn1cc(CNCC2CCN(c3ncc(C(=O)NO)cn3)CC2)c2ccccc21 [quisinostat]
How it was run: as §1

tipifarnib = compound: Cn1cncc1[C@@](N)(c1ccc(Cl)cc1)c1ccc2c(c1)c(-c1cccc(Cl)c1)cc(=O)n2C [tipifarnib]
How it was run: as §1

[4] = compound: NC(=O)Nc1cc(-c2cccc(F)c2)sc1C(=O)N[C@H]1CCCNC1
How it was run: as §1

[5] = compound: NC(=O)c1cnc(N[C@@H]2CCCC[C@@H]2N)nc1Nc1cccc(-n2nccn2)c1
How it was run: as §1

[6] = compound: NC1(c2ccc(-c3nc4ccn5c(=O)[nH]nc5c4cc3-c3ccccc3)cc2)CCC1
How it was run: as §1

[7] = compound: NCC(=O)Nc1ccc(-n2nc(C(F)(F)F)cc2-c2ccc3c(ccc4ccccc43)c2)cc1
How it was run: as §1

vorinostat = compound: O=C(CCCCCCC(=O)Nc1ccccc1)NO [vorinostat]
How it was run: as §1

silmitasertib = compound: O=C(O)c1ccc2c(c1)nc(Nc1cccc(Cl)c1)c1ccncc12 [silmitasertib]
How it was run: as §1

[8] = compound: O=C1NC(=O)C(c2cnc3ccccn23)=C1c1cn2c3c(cc(F)cc13)CN(C(=O)N1CCCCC1)CC2
How it was run: as §1

entospletinib = compound: c1cn2cc(-c3ccc4cn[nH]c4c3)nc(Nc3ccc(N4CCOCC4)cc3)c2n1 [entospletinib]
How it was run: as §1

Target | log2 fold change (nilotinib) | log2 fold change [1] | log2 fold change (dasatinib) | log2 fold change [2] | log2 fold change [3] | log2 fold change (quisinostat) | log2 fold change (tipifarnib) | log2 fold change [4] | log2 fold change [5] | log2 fold change [6] | log2 fold change [7] | log2 fold change (vorinostat) | log2 fold change (silmitasertib) | log2 fold change [8] | log2 fold change (entospletinib)
CDK2AP1 (UniProt O14519) | inactive: 0.169 | inactive: 0.062 | inactive: -0.012 | inactive: -0.03 | inactive: -0.012 | inactive: -0.044 | inactive: 0.096 | inactive: -0.119 | inactive: -0.008 | inactive: -0.077 | inactive: -0.012 | inactive: 0.087 | inactive: -0.043 | inactive: -0.023 | inactive: 0.083
CDC7 (UniProt O00311) | inactive: -0.049 | inactive: 0.028 | inactive: 0.029 | inactive: 0.059 | inactive: 0.001 | inactive: -0.047 | inactive: -0.009 | inactive: 0.015 | inactive: -0.022 | inactive: -0.016 | inactive: 0.086 | inactive: -0.152 | inactive: -0.077 | inactive: -0.01 | inactive: 0.007
CDK5RAP3 isoform 4 (UniProt Q96JB5) | inactive: 0.003 | inactive: -0.016 | inactive: -0.067 | inactive: 0.006 | inactive: 0.045 | inactive: -0.03 | inactive: -0.043 | inactive: 0.023 | inactive: 0.026 | inactive: -0.007 | inactive: 0.046 | inactive: 0.026 | inactive: 0.068 | inactive: 0 | inactive: 0.012
CDK8 (UniProt P49336) | inactive: -0.025 | inactive: -0.037 | inactive: -0.054 | inactive: 0.119 | inactive: -0.032 | inactive: -0.05 | inactive: -0.209 | inactive: 0.018 | inactive: -0.006 | inactive: -0.033 | inactive: -0.008 | inactive: -0.057 | inactive: 0.226 | inactive: -0.053 | –
CDIPT (UniProt O14735) | inactive: -0.019 | inactive: -0.02 | inactive: 0.036 | inactive: -0.074 | inactive: -0.01 | inactive: 0.017 | inactive: -0.03 | inactive: -0.05 | inactive: 0.004 | inactive: 0.047 | inactive: 0.001 | inactive: 0.04 | inactive: 0.064 | inactive: -0.096 | inactive: 0
CDKN1C (UniProt P49918) | inactive: -0.054 | inactive: -0.035 | inactive: 0.083 | inactive: 0.094 | inactive: 0.055 | inactive: 0.091 | inactive: 0.037 | inactive: -0.091 | inactive: -0.101 | inactive: 0.04 | inactive: 0.124 | inactive: 0.058 | inactive: -0.029 | inactive: 0.134 | inactive: 0.048
CDKN2AIP (UniProt Q9NXV6) | inactive: 0.002 | inactive: -0.023 | inactive: -0.004 | inactive: -0.008 | inactive: -0.014 | inactive: -0.031 | inactive: 0.005 | inactive: 0.008 | inactive: -0.01 | inactive: 0.001 | inactive: -0.005 | inactive: 0.072 | inactive: -0.037 | inactive: -0.022 | inactive: 0.013
CD99 (UniProt P14209) | inactive: -0.016 | inactive: -0.018 | inactive: 0.147 | inactive: 0.003 | inactive: -0.058 | inactive: -0.057 | inactive: -0.069 | inactive: 0.054 | inactive: -0.065 | inactive: -0.094 | inactive: -0.052 | inactive: 0.152 | inactive: -0.068 | inactive: 0 | –
CDKAL1 (UniProt Q5VV42) | inactive: 0.003 | inactive: -0.018 | inactive: -0.036 | inactive: 0.007 | inactive: 0.011 | inactive: 0.001 | inactive: -0.045 | inactive: 0.01 | inactive: -0.002 | inactive: -0.004 | inactive: 0.038 | inactive: 0.101 | inactive: -0.02 | inactive: -0.007 | inactive: -0.013
CDC26 (UniProt Q8NHZ8) | inactive: -0.025 | inactive: -0.051 | inactive: 0.027 | inactive: -0.029 | inactive: 0.058 | inactive: -0.117 | inactive: 0.038 | inactive: -0.016 | inactive: 0.011 | inactive: 0.008 | inactive: -0.122 | inactive: 0.084 | inactive: -0.012 | inactive: -0.085 | inactive: 0.018
CDAN1 (UniProt Q8IWY9) | inactive: -0.029 | inactive: 0.022 | inactive: -0.055 | inactive: -0.014 | inactive: -0.037 | inactive: -0.09 | inactive: -0.026 | inactive: 0.066 | inactive: 0.017 | inactive: -0.032 | inactive: 0.019 | active: -0.326 | inactive: 0.05 | inactive: 0.056 | inactive: -0.006
CDC123 (UniProt O75794) | inactive: 0.026 | inactive: -0.011 | inactive: -0.006 | inactive: -0.104 | inactive: 0.033 | inactive: 0.008 | inactive: -0.008 | inactive: 0.022 | inactive: -0.009 | inactive: 0.017 | inactive: -0.064 | inactive: -0.019 | inactive: 0.015 | inactive: -0.032 | inactive: 0.043
CEP55 (UniProt Q53EZ4) | inactive: -0.066 | inactive: 0.039 | inactive: -0.03 | inactive: 0.045 | inactive: -0.02 | inactive: -0.002 | inactive: -0.074 | inactive: 0.013 | inactive: 0.062 | inactive: 0.031 | inactive: 0.039 | inactive: -0.206 | inactive: -0.002 | inactive: 0.018 | inactive: -0.117
CEP250 (UniProt Q9BV73) | inactive: 0.038 | inactive: -0.024 | inactive: -0.005 | inactive: 0.02 | inactive: 0.138 | inactive: -0.006 | inactive: -0.011 | inactive: 0.02 | inactive: 0.06 | inactive: 0.012 | inactive: 0.014 | inactive: 0.012 | inactive: 0.041 | inactive: 0.003 | inactive: -0.058
CDC37 (UniProt Q16543) | inactive: -0.009 | inactive: 0.01 | inactive: 0.02 | inactive: 0.017 | inactive: -0.018 | inactive: 0.088 | inactive: 0.025 | inactive: -0.032 | inactive: -0.031 | inactive: 0.013 | inactive: 0.012 | inactive: 0.099 | inactive: -0.002 | inactive: 0.003 | inactive: -0.004
CD99L2 isoform 5 (UniProt Q8TCZ2) | inactive: -0.071 | inactive: -0.04 | inactive: -0.077 | inactive: -0.064 | inactive: 0.107 | inactive: 0.044 | inactive: -0.079 | inactive: 0.036 | inactive: -0.205 | inactive: -0.015 | inactive: 0.232 | inactive: 0.166 | inactive: 0.003 | inactive: -0.018 | –
CDK2AP2 (UniProt O75956) | inactive: 0.015 | inactive: 0.034 | inactive: -0.028 | inactive: 0.088 | inactive: 0.068 | inactive: -0.048 | inactive: 0.096 | inactive: -0.096 | inactive: -0.082 | inactive: 0.021 | inactive: 0.011 | inactive: 0.085 | inactive: -0.013 | inactive: -0.088 | –
CENPQ (UniProt Q7L2Z9) | inactive: -0.025 | inactive: 0.044 | inactive: 0 | inactive: -0.036 | inactive: -0.015 | inactive: 0.07 | inactive: -0.076 | inactive: 0.047 | inactive: 0.164 | inactive: -0.107 | inactive: -0.016 | inactive: 0.061 | inactive: -0.014 | inactive: 0.028 | inactive: 0.047
CFH (UniProt P08603) | inactive: 0.129 | inactive: -0.016 | inactive: 0.008 | inactive: 0.209 | inactive: -0.032 | inactive: -0.01 | inactive: -0.033 | inactive: -0.005 | inactive: -0.047 | inactive: -0.021 | inactive: 0.005 | inactive: 0.149 | inactive: -0.045 | inactive: 0.039 | inactive: -0.03
CDC25C (UniProt P30307) | inactive: 0.039 | inactive: -0.037 | inactive: 0.042 | inactive: -0.048 | inactive: 0.004 | inactive: 0.056 | inactive: -0.004 | inactive: 0.025 | inactive: 0.015 | inactive: 0.05 | inactive: -0.019 | active: -0.271 | inactive: 0.009 | inactive: 0.026 | inactive: -0.01
CDK4 (UniProt P11802) | inactive: -0.077 | inactive: -0.024 | inactive: -0.008 | inactive: 0.148 | inactive: 0.004 | inactive: -0.033 | inactive: 0.001 | inactive: 0.001 | inactive: 0.002 | inactive: -0.019 | inactive: 0.024 | inactive: -0.112 | inactive: 0.101 | inactive: 0.186 | inactive: -0.009

Look-ups from the results shown:
In log2 fold change (vorinostat), CDK8 (UniProt P49336) reads inactive: -0.057
In log2 fold change [4], CDKAL1 (UniProt Q5VV42) reads inactive: 0.01

Exported in markdown: part of the list above

| Target | log2 fold change (nilotinib) | log2 fold change [1] | log2 fold change (dasatinib) | log2 fold change [2] | log2 fold change [3] | log2 fold change (quisinostat) | log2 fold change (tipifarnib) | log2 fold change [4] | log2 fold change [5] | log2 fold change [6] | log2 fold change [7] | log2 fold change (vorinostat) | log2 fold change (silmitasertib) | log2 fold change [8] | log2 fold change (entospletinib) |
| --- | --- | --- | --- | --- | --- | --- | --- | --- | --- | --- | --- | --- | --- | --- | --- |
| CEP55 (UniProt Q53EZ4) | inactive: -0.066 | inactive: 0.039 | inactive: -0.03 | inactive: 0.045 | inactive: -0.02 | inactive: -0.002 | inactive: -0.074 | inactive: 0.013 | inactive: 0.062 | inactive: 0.031 | inactive: 0.039 | inactive: -0.206 | inactive: -0.002 | inactive: 0.018 | inactive: -0.117 |
| CDK2AP2 (UniProt O75956) | inactive: 0.015 | inactive: 0.034 | inactive: -0.028 | inactive: 0.088 | inactive: 0.068 | inactive: -0.048 | inactive: 0.096 | inactive: -0.096 | inactive: -0.082 | inactive: 0.021 | inactive: 0.011 | inactive: 0.085 | inactive: -0.013 | inactive: -0.088 | – |
